From doi:10.1101/2023.11.27.568816
Results are given in words; binding and its absence hold for the method and conditions named. Some results given as binding are weak or reduced against the parent protein; the word gives no strength.

The chains behind the UniProt entries cited, without tags or fusion partners.
UniProt Q7KZI7, whole entry: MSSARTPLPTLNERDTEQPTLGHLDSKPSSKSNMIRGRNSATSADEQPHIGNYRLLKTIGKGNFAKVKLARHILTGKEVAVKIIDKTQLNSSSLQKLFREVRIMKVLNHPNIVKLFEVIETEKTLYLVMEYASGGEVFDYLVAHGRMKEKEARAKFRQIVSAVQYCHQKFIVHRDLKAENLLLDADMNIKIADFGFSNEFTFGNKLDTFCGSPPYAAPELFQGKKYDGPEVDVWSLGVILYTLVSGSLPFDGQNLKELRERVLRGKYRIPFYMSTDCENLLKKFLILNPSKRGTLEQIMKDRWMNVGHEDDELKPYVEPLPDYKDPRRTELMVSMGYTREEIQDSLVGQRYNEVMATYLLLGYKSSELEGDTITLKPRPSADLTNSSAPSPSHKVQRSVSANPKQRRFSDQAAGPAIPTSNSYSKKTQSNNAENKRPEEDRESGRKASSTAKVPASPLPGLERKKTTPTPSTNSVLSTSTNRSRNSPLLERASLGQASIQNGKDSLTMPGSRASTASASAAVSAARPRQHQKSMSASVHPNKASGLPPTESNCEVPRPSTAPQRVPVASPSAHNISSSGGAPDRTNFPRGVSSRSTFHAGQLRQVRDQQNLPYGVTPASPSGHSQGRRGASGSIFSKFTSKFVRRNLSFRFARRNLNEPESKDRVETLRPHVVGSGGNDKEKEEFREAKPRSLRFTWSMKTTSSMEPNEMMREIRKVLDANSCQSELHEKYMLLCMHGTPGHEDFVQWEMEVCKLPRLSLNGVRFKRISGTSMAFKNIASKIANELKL
UniProt P42684, whole entry: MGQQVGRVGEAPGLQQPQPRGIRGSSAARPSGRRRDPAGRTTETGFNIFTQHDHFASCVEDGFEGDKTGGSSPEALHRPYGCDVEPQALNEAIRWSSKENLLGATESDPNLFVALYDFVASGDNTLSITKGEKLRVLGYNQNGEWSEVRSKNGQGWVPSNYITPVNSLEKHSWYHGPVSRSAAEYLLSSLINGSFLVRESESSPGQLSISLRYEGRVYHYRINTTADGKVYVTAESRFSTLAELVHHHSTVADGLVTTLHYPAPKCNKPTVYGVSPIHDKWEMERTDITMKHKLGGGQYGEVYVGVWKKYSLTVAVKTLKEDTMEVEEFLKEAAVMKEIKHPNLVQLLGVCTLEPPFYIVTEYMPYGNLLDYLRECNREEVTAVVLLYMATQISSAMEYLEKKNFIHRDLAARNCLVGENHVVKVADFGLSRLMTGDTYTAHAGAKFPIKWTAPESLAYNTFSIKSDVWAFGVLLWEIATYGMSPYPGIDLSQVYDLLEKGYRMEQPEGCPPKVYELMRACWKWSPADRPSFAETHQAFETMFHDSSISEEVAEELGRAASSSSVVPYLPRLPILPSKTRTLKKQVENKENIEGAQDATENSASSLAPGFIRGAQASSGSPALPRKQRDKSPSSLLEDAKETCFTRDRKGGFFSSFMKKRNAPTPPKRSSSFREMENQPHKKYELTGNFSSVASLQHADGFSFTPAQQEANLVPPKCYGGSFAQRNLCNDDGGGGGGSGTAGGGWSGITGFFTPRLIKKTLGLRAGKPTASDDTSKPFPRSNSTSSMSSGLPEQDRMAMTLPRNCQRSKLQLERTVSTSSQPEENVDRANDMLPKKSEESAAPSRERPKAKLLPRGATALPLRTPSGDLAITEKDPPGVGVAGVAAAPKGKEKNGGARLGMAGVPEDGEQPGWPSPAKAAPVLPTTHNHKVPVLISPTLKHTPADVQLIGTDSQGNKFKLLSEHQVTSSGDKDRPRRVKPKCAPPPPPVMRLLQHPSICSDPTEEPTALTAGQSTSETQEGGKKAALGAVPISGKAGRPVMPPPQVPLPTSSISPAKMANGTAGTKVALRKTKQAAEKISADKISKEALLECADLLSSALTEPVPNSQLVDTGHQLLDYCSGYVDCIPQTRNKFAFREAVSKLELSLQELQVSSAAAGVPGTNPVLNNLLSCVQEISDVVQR
UniProt P0DTD2, whole entry: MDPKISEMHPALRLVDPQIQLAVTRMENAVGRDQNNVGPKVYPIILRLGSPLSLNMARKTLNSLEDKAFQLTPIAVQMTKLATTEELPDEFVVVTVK

Assays:
Assay in all cases: two-hybrid
[1] = target: MARK2 (microtubule affinity regulating kinase 2) (human) (UniProt Q7KZI7)
[2] = target: T1, PHKG2 (human) (UniProt P15735)
T1 sequence: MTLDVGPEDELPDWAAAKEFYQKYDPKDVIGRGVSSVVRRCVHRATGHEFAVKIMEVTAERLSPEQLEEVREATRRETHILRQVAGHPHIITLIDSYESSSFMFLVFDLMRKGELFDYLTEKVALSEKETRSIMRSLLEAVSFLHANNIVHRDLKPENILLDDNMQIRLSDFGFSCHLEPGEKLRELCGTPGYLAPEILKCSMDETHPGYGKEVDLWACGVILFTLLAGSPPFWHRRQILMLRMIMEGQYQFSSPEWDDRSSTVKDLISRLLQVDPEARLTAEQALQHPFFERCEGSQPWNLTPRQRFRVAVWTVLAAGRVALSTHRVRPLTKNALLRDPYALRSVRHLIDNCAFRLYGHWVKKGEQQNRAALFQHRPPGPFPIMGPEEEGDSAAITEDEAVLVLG

[3] = target: ABL2 (human) (UniProt P42684)

Substance: SARS-CoV-2 ORF9b (from UniProt P0DTD2 1-97)
- binding [1]: binds

Substance: SARS-CoV-2 NSP5 (from UniProt P0DTD1 3264-3569)
- binding [2]: binds

Substance: SARS-CoV-2 NSP13 (from UniProt P0DTD1 5325-5925)
- binding [3]: binds
